Taken from: PubChem BioAssay AID504808 (Drosophila RNAi Screening Center, 2011)
The screen tested about 21,000 reagents; below is an unselected part of those with a known target gene and a result. Of all reagents, 18 (0.084%) were called active. 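Raw counts without plate normalisation, one of two replicates; the ratio scores behind the calls were not deposited.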 Entries without a mark were called inactive. No sequences are given here. The record does not give: the amount of reagent, the time to read-out.

- Assay: 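Chromatin factors that keep E2F targets switched off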 (primary screen)
- Cells: Drosophila S2 cells
- Reagents: long dsRNA against Drosophila genes
- Detection: 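Firefly luciferase driven by E2F sites, normalised to Renilla luciferase on the same minimal promoter, measured by plate reader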
- Scale: E2F firefly: higher = more E2F reporter activity; Renilla normaliser: higher = more normaliser reporter signal
- Call rule: 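Called active if the normalised E2F reporter went up by over 50%; the cutoff is arbitrary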

no.	gene	DRSC id	E2F firefly, rep 1	Renilla normaliser, rep 1
1	nompB (GeneID 35414)	DRSC03701	1.07e5	4187
2	nompB (GeneID 35414)	DRSC03731	1.15e5	4908
3	LanB1 (GeneID 34068)	DRSC03360	93532	4176
4	Ir94a (GeneID 318610)	DRSC13538	92352	2437
5	Mtp (GeneID 35362)	DRSC03216	71258	3070
6	SkpB (GeneID 36298)	DRSC07683	1.03e5	4062
7	CG15831 (retired record) (GeneID 3355006)	DRSC20816	1.39e5	6572
8	CG14490 (GeneID 37041)	DRSC06461	1.50e5	4473
9	ana2 (GeneID 35878)	DRSC05952	2701	238
10	CG14246 (GeneID 3772140)	DRSC14741	1.12e5	5778
11	Jupiter (GeneID 41392)	DRSC15204	73442	3863
12	Jupiter (GeneID 41392)	DRSC15205	1.53e5	6766
13	Jupiter (GeneID 41392)	DRSC15389	1.43e5	6162
14	IFT43 (GeneID 34676)	DRSC02892	83682	3886
15	ninaE (GeneID 42367)	DRSC17014	1.47e5	7208
16	mtSSB (GeneID 41968)	DRSC17005	1.24e5	6912
17	CG3829 (GeneID 38000)	DRSC04423	87421	3741
18	CG32284 (GeneID 317956)	DRSC08025	1.20e5	3804
19	CG14330 (GeneID 42102)	DRSC14809	1.16e5	6947
20	CG6923 (GeneID 41420)	DRSC16136	77904	3556
21	CG18048 (GeneID 40782)	DRSC12573	1.36e5	6994
22	Ref2 (GeneID 34667)	DRSC02563	1.06e5	4558
23	CG5781 (GeneID 34678)	DRSC02893	1.19e5	4262
24	Hibch (GeneID 41869)	DRSC15705	71463	3403
25	Vdup1 (GeneID 38023)	DRSC08586	99513	4317
26	CG11122 (GeneID 32046)	DRSC19382	8660	820
27	Pkg21D (GeneID 33253)	DRSC00772	79905	3390
28	Rcd2 (GeneID 40283)	DRSC11756	1.73e5	7054
29	CG11454 (GeneID 33175)	DRSC00310	86352	3920
30	CG14420 (GeneID 31284)	DRSC17917	1.30e5	6882

Copied from the entries so far for reference:
no.	gene	DRSC id	E2F firefly, rep 1	Renilla normaliser, rep 1
17	CG3829 (GeneID 38000)	DRSC04423	87421	3741
18	CG32284 (GeneID 317956)	DRSC08025	1.20e5	3804
19	CG14330 (GeneID 42102)	DRSC14809	1.16e5	6947
20	CG6923 (GeneID 41420)	DRSC16136	77904	3556

The results go on:
no.	gene	DRSC id	E2F firefly, rep 1	Renilla normaliser, rep 1
31	Corin (GeneID 35691)	DRSC06818	1.46e5	5097
32	CG5023 (GeneID 42400)	DRSC15697	1.10e5	5424
33	CG7798 (GeneID 36798)	DRSC07047	1.50e5	5543
34	CG4021 (GeneID 37484)	DRSC04439	90746	3735
35	CG8031 (GeneID 41601)	DRSC16364	75580	3098
36	Atg18a (GeneID 38913)	DRSC10943	83547	4351
37	Ciao1 (GeneID 36655)	DRSC06170	2999	182
38	DCTN4-p62 (GeneID 35709)	DRSC06101	3416	189
39	CG12321 (GeneID 42174)	DRSC14499	66963	2990
40	MED22 (GeneID 31038)	DRSC18175	53805	4294
41	spas (GeneID 42846)	DRSC15929	80677	5737
42	CG6034 (GeneID 39974)	DRSC10572	1.71e5	8030
43	Irp-1A (GeneID 42689)	DRSC16719	76308	3854
44	heph (GeneID 48571)	DRSC14082	91444	2319
45	heph (GeneID 48571)	DRSC14085	66421	2532
46	heph (GeneID 48571)	DRSC15436	1.05e5	6123
47	heph (GeneID 48571)	DRSC16783	67140	4476
48	CG17109 (GeneID 42730)	DRSC15172	1.06e5	6150
49	CG14258 (GeneID 43260)	DRSC14753	1.35e5	7621
50	CG10947 (GeneID 35309)	DRSC02111	81176	3166
51	CG8944 (GeneID 32517)	DRSC20128	75174	692
52	Cfp1 (GeneID 31880)	DRSC18128	93820	5411
53	CG2278 (GeneID 31751)	DRSC18226	1.35e5	5541
54	CG11378 (GeneID 31060)	DRSC18627	1.15e5	6012
55	CG2938 (GeneID 31347)	DRSC18243	1719	832
56	CG6409 (GeneID 39220)	DRSC10630	81056	3290
57	dpn (GeneID 35800)	DRSC07605	1.24e5	4171
